Reference: PubChem BioAssay AID1224826 (NIAID, 2016)
Screen: 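Regulators of Tlr4 signalling leading to Tnf-alpha expression in macrophages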 (primary screen). System: RAW264.7 G9 macrophages from mouse bearing reporters for p65 (GFP) and the Tnf promoter (mCherry). Reagent: siRNA pool against mouse genes, 100 nM. Time to read-out: 16 h of LPS stimulation, after 2 days of siRNA transfection. Challenge: bacterial lipopolysaccharide (Salmonella minnesota R595), 10 ng/ml. Measured: 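Imaged Tnf reporter mCherry in nuclei, minus background, normalised per plate to the median and expressed as robust z-scores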. Direction: Tnf reporter robust z-score: higher = stronger Tnf promoter reporter signal after LPS. Hit rule: 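Called active when robust z-score is at most -1.3, matching the median of the Tlr4 knock-down control, or over 3; control wells and wells with under 50 cells never active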. Meaning of the calls: active = Tnf reporter clearly lowered or raised; inactive = no clear change in Tnf reporter.
In all, the deposit lists about 17,000 reagents; this is a part drawn at random. About 1,110 of them (6.6%) count as active. 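Active means lowered or raised reporter signal; replicate intensities are raw and not normalised per plate.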 Entries without a mark were called inactive. Not all columns of the deposit are shown.

{"gene": "Brca2 (breast cancer 2, early onset)", "Tnf reporter robust z-score": -1.08, "fewer than 50 cells in well": "enough cells in well"}
{"gene": "Cib1 (calcium and integrin binding 1)", "Tnf reporter robust z-score": -0.35, "fewer than 50 cells in well": "enough cells in well"}
{"gene": "Tsc22d3 (TSC22 domain family, member 3)", "Tnf reporter robust z-score": 0.31, "fewer than 50 cells in well": "enough cells in well"}
{"gene": "Map2k3os (mitogen-activated protein kinase kinase 3, opposite strand)", "Tnf reporter robust z-score": -0.65, "fewer than 50 cells in well": "enough cells in well"}
{"gene": "Ppp2r3c (protein phosphatase 2, regulatory subunit B'', gamma)", "Tnf reporter robust z-score": 0.09, "fewer than 50 cells in well": "enough cells in well"}
{"gene": "Ap3s1 (adaptor-related protein complex 3, sigma 1 subunit)", "Tnf reporter robust z-score": -1.24, "fewer than 50 cells in well": "enough cells in well"}
{"gene": "Prl3d3 (prolactin family 3, subfamily d, member 3)", "Tnf reporter robust z-score": -0.83, "fewer than 50 cells in well": "enough cells in well"}
{"gene": "Clca3a2 (chloride channel accessory 3A2)", "Tnf reporter robust z-score": 0.36, "fewer than 50 cells in well": "enough cells in well"}
{"gene": "Slc25a10", "Tnf reporter robust z-score": 0.93, "fewer than 50 cells in well": "enough cells in well"}
{"gene": "Epn3 (epsin 3)", "Tnf reporter robust z-score": -1, "fewer than 50 cells in well": "enough cells in well"}
{"gene": "Slc25a20", "Tnf reporter robust z-score": -0.21, "fewer than 50 cells in well": "enough cells in well"}
{"gene": "Rnf111 (ring finger protein 111)", "Tnf reporter robust z-score": 0.07, "fewer than 50 cells in well": "enough cells in well"}

2 of these entries in another layout:
gene,Tnf reporter robust z-score,fewer than 50 cells in well
"Ap3s1 (adaptor-related protein complex 3, sigma 1 subunit)",-1.24,enough cells in well
"Prl3d3 (prolactin family 3, subfamily d, member 3)",-0.83,enough cells in well
